The target of the assay is U. maydis Upa1 (aa 970-1287) (U. maydis). Description: two-hybrid.

No constants are given. Whether binding was seen depends on the method and setting. Binding calls can cover weak binding; strength is not graded here.

B1: Mms2 (protein, UniProt P53152 1-137)
chain: MSKVPRNFRLLEELEKGEKGFGPESCSYGLADSDDITMTKWNGTILGPPHSNHENRIYSLSIDCGPNYPDSPPKVTFISKINLPCVNPTTGEVQTDFHTLRDWKRAYTMETLLLDLRKEMATPANKKLRQPKEGETF
Turning to B1, the binding result is given as “binds weakly”.

B2: Ubc13 (enzyme, UniProt P52490 1-153)
chain: MASLPKRIIKETEKLVSDPVPGITAEPHDDNLRYFQVTIEGPEQSPYEDGIFELELYLPDDYPMEAPKVRFLTKIYHPNIDRLGRICLDVLKTNWSPALQIRTVLLSIQALLASPNPNDPLANDVAEDWIKNEQGAKAKAREWTKLYAKKKPE
Turning to B2, the binding result was “binds”.

The values above are taken from article doi:10.1101/575241.
